The list shows a part of the results.
target: OsWRKY34 (Oryza sativa, UniProt Q0JBA9 1-250); assay: protein-binding microarray (RPBM); PBS, 2% BSA, 51.3 ng/ul salmon testes DNA, 50 uM zinc acetate, 200 nM TF, 25 C, 1 h; high values mean tight binding; details: protein: recombinant; tags: N-terminal polyhistidine and DsRed monomer fusion (pET32a); label: CyDye5-dUTP incorporated in the synthesized complementary strand; 3' TTTTT single-stranded linker to array surface; dsDNA, one strand shown
How it was run: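 The binding signal is fluorescence intensity per array feature (arbitrary units). Readings came from an Axon 4000B scanner after a washed, 2% BSA-blocked, double-stranded custom Agilent array had been incubated for 1 h at 25 °C with 200 nM protein and 50 µM zinc acetate. The protein was a Ni–NTA-purified transcription factor fused N-terminally to polyhistidine and DsRed, expressed in E. coli BL21-CodonPlus.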

By UniProt entry, the sequences of proteins in these tests, tags left out.
UniProt Q0JBA9, entry or part of it: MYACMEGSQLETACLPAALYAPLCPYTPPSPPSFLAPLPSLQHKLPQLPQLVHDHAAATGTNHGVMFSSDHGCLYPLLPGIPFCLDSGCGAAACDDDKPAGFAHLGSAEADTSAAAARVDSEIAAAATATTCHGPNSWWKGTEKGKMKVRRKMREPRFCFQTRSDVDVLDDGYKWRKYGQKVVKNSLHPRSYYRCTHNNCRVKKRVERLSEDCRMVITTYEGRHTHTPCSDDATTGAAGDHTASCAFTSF

In order of rising binding signal:
1. AACTAAACATTTTTCCACGCGCCCCGCATGTATCCTTTCTCGGAGTCACCTAGTGCAG  8040 fluorescence intensity (a.u.)
2. TGGTTTGGGTTGTCACTTTTGGCAGAGCCTCTGTCCGGGACGGAGTCACCTAGTGCAG  8090 fluorescence intensity (a.u.)
3. ATGGCTCGGGGTAATACTGAATAGTGGTCCATCCTTTTTTCGGAGTCACCTAGTGCAG  8160 fluorescence intensity (a.u.)
4. GGCCATTAATCTTGCCCGCGAATTAACCTGATAACTAACTCGGAGTCACCTAGTGCAG  8190 fluorescence intensity (a.u.)
5. CTTGTTCCTGCACGCGATTGCCCAACTTGGAGCACGAAATCGGAGTCACCTAGTGCAG  8320 fluorescence intensity (a.u.)
6. ATAACCAACATATTTAGCCTACAATTAAATATTTACTATACGGAGTCACCTAGTGCAG  8390 fluorescence intensity (a.u.)
7. TCTTCCCTAGGTGAGATTAATTCTTCTGTGTTTGTCGATTCGGAGTCACCTAGTGCAG  8470 fluorescence intensity (a.u.)
8. ACTTCCAAGGCTGTTTGTCGTGGGTCCACATGTCAGTTACCGGAGTCACCTAGTGCAG  8540 fluorescence intensity (a.u.)
9. TGGTGTGGTTTTTTATTAGACGGTGGGAGGAAGACAAATACGGAGTCACCTAGTGCAG  8570 fluorescence intensity (a.u.)
10. ACCAATCGTTCACACCAGTGCAGTTAACCACCTAACTGATCGGAGTCACCTAGTGCAG  8650 fluorescence intensity (a.u.)
11. CCACCACTACCATCCGTTCCACCTTCCGAACCAAACAGCGCGGAGTCACCTAGTGCAG  8670 fluorescence intensity (a.u.)
12. CATCTTCCGCCCGCGCGTATCCCACACGATCGCGCGCGGGCGGAGTCACCTAGTGCAG  8700 fluorescence intensity (a.u.)
13. GGTGTACTTGTTTGCCTGGTTATGATGGAAATCCATATATCGGAGTCACCTAGTGCAG  8710 fluorescence intensity (a.u.)
14. TGGCATCTTCTATACATAATACAAGCTCCTTTGTTTCCTACGGAGTCACCTAGTGCAG  8790 fluorescence intensity (a.u.)
15. AGATCATTTTCTCATCAATCCAGCCATTCTATCTATACTACGGAGTCACCTAGTGCAG  8810 fluorescence intensity (a.u.)
16. AAGACTTCTCGGCTCTTATCCATTTTTCGAATTTTTTTAGCGGAGTCACCTAGTGCAG  8880 fluorescence intensity (a.u.)
17. ATCGTTATCTATTGCCGTATGTTATTTCGTTGTTCCGTCTCGGAGTCACCTAGTGCAG  8920 fluorescence intensity (a.u.)
18. AGCTTCTTTTTCTGTGATAGCAATACTGCCTCGAGGAGGACGGAGTCACCTAGTGCAG  8950 fluorescence intensity (a.u.)
19. CCAATTTACAGTACTTTGTGCATGTGCTTTCTCCGTTTCACGGAGTCACCTAGTGCAG  8980 fluorescence intensity (a.u.)
20. CGCCCTCTGCTTTTACTAGTGCATCTCCGTCTCGCTGCATCGGAGTCACCTAGTGCAG  9110 fluorescence intensity (a.u.)
21. AACCCGGTCTGTCTCTACTTGCTTTTATTCTACTTGTACACGGAGTCACCTAGTGCAG  9140 fluorescence intensity (a.u.)
22. CGTCAATGTCCTTACAAAATTATGGAGCACCTCTCTTTTTCGGAGTCACCTAGTGCAG  9170 fluorescence intensity (a.u.)
23. CAATTGCCATGCTATTTGTGTTTTGTGTTTATGTGCAACTCGGAGTCACCTAGTGCAG  9250 fluorescence intensity (a.u.)
24. CTCATCCATCATCGTCCTCGACTCCTCGCCGTCGCCTCCCCGGAGTCACCTAGTGCAG  9390 fluorescence intensity (a.u.)
25. GCATGCCACATAGCCACTCGCTCATCGGAAGCAAATCATCCGGAGTCACCTAGTGCAG  9460 fluorescence intensity (a.u.)
26. GTGTCCTTTTCTTTTTTTTCTTCTTTTCTTTTTCTTTTTCCGGAGTCACCTAGTGCAG  9510 fluorescence intensity (a.u.)
27. ATCTGCTTCAATTTCGTATTCGACAATATTCGATTCCGTTCGGAGTCACCTAGTGCAG  9530 fluorescence intensity (a.u.)
28. TATGCCAACAGTAACAGTGCATCTCGTCTATGTATCTTCTCGGAGTCACCTAGTGCAG  9620 fluorescence intensity (a.u.)
29. TTACTATACTATTAATATCTGATCACACCTGTCATACACACGGAGTCACCTAGTGCAG  9710 fluorescence intensity (a.u.)
30. ATAAGGGATTTTCAGTTTTTGCTTGCAACGTTTGACCACTCGGAGTCACCTAGTGCAG  9970 fluorescence intensity (a.u.)
31. TTTCCTCTTTTTTGTTTGTTCGTTTGCTGCGTTATCACCTCGGAGTCACCTAGTGCAG  10200 fluorescence intensity (a.u.)
32. CAAGTGCATTTCCTCCCGATTCACCTTCAGATTTTGTTCTCGGAGTCACCTAGTGCAG  10300 fluorescence intensity (a.u.)
33. GGGCGGCAGGGTCTATTTTTGCAATTTTGTTCGCCGATAGCGGAGTCACCTAGTGCAG  11100 fluorescence intensity (a.u.)
34. CGGCGCCCTATCCTTATCTCCTCGTTTTTCCCGATCAATTCGGAGTCACCTAGTGCAG  11100 fluorescence intensity (a.u.)
35. CTCGCCTTTGTTTTCCCCTTCGCGCACCAAACACCAAACACGGAGTCACCTAGTGCAG  11600 fluorescence intensity (a.u.)
36. AGTCGTCTGTCCATTATCCTGTTCGAGTATAAGCTTTTTTCGGAGTCACCTAGTGCAG  11700 fluorescence intensity (a.u.)
37. AGGCCCACACCCTTTTCTTCACGCGTATTTGCAGTCTCGCCGGAGTCACCTAGTGCAG  11900 fluorescence intensity (a.u.)
38. CTCCTTGGCCCTTTATATACATACACACAGGCACACGTCCCGGAGTCACCTAGTGCAG  12900 fluorescence intensity (a.u.)
39. AGTTCCAAATTTTTTCTTCAAACTTCCGCTTTTCTATCACCGGAGTCACCTAGTGCAG  13000 fluorescence intensity (a.u.)
40. CGCCTGTTGTTCTTGCCTCCTTCCCCGACCGCCACTCTTCCGGAGTCACCTAGTGCAG  13600 fluorescence intensity (a.u.)
41. GGGGCTTTTAGTAGTAGTTCCATTTCTTATTTTGTTTTTGCGGAGTCACCTAGTGCAG  14600 fluorescence intensity (a.u.)
42. GGTGTTTATGTTGGTTATCTCACTTTGCCATGTCACACTTCGGAGTCACCTAGTGCAG  14800 fluorescence intensity (a.u.)

Reference: article PMC7819943, “Rice protein-binding microarrays: a tool to detect cis-acting elements near promoter regions in rice”
